{
  "sequences": {"note": "Chains of the proteins cited; added tags and fusions are not shown. Residues count along the entry.", "UniProt P30926, 22-498": "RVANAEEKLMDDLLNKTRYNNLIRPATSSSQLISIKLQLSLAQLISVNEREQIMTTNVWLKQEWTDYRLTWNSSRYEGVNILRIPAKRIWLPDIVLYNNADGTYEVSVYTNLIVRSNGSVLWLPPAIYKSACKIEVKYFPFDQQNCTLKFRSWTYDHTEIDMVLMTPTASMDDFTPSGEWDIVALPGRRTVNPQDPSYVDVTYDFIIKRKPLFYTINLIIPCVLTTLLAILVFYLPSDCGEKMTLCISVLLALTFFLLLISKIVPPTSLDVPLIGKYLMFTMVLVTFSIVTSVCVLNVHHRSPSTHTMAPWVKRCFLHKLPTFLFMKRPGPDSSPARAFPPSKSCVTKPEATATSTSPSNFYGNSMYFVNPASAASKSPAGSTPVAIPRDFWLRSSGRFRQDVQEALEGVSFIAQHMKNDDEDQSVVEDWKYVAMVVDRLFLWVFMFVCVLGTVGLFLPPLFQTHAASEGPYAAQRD"},
  "source": "patent US6936457B1",
  "about": "(Merck & Co., Inc., priority 1990, dated 2005)",
  "assay_type_in_all_cases": "cell-based",
  "key": {"[1]": {"biological_target": "T1, human neuronal nicotinic AChR α3 and β4 subunits (Homo sapiens, UniProt P30926+P32297)", "T1 construct": "expressed in transfected cells; host or cells: Xenopus oocytes injected with in vitro transcripts", "experiment": "Two-electrode voltage clamp of Xenopus oocytes injected with α3 and β4 transcripts"}, "[2]": {"biological_target": "T2, human neuronal nicotinic AChR β4 subunit (Homo sapiens, UniProt P30926)", "T2 construct": "expressed in transfected cells; host or cells: Xenopus oocytes injected with in vitro transcript (KEβ4.6/pGEM or pCMV-KEβ4)", "experiment": "Two-electrode voltage clamp of Xenopus oocytes injected with β4 transcript alone"}, "[3]": {"biological_target": "T3, human neuronal nicotinic AChR α3 subunit (Homo sapiens, UniProt P32297)", "T3 construct": "expressed in transfected cells; host or cells: Xenopus oocytes injected with in vitro transcript", "experiment": "Two-electrode voltage clamp of Xenopus oocytes injected with α3 transcript alone"}, "[4]": {"conditions": "pCMV-KEα3, 12.5 ng + KEβ4.6/pGEM, 12.5 ng"}, "[5]": {"conditions": "pCMV-KEα3, 125 ng + pCMV-KEβ4, 125 ng"}, "[6]": {"conditions": "pCMV-KEα3, 125 ng + pCMV-KEβ4, 125 ng, listed as Ch"}},
  "note": "Where “and” joins values, the source holds several entries; their conditions need not be identical. Equal entries are not always repeated. At least one compound was matched to its structure with a doubt left. Some entries share one result that the patent states for a list of compounds.",
  "data": [
    {"smiles": "CC(=O)OCC[N+](C)(C)C", "note": "[ACh, acetylcholine]", "values": [
      {"measurement": "inward currents in response to agonist", "setting": "[1]; 12.5 or 125 ng α3 and 12.5 or 125 ng β4 transcript, tested concentrations 0.1 μM to 10 μM", "value": "detectable inward currents"},
      {"measurement": "Current Amplitude", "setting": "[1]; [4]", "value": "20-550 nA and 20-300 nA"},
      {"measurement": "Number of oocytes responding", "setting": "[1]; [4]", "value": "4 of 5 and 3 of 4"},
      {"measurement": "Current Amplitude", "setting": "[1]; [5]", "value": "100-400 nA"},
      {"measurement": "Number of oocytes responding", "setting": "[1]; [5]", "value": "6 of 6"},
      {"measurement": "Current Amplitude", "setting": "[1]; [6]", "value": "200-500 nA"},
      {"measurement": "Number of oocytes responding", "setting": "[1]; [6]", "value": "5 of 5"},
      {"measurement": "response of oocytes to application of agonist", "setting": "[2]; 12.5 ng β4 transcript, up to 100 μM agonist", "value": "did not respond"},
      {"measurement": "Number of oocytes responding", "setting": "[2]; KEβ4.6/pGEM, 12.5 ng RNA injected", "value": "0 of 9"},
      {"measurement": "response of oocytes to application of agonist", "setting": "[3]; 12.5 ng α3 transcript, up to 100 μM agonist", "value": "did not respond"},
      {"measurement": "Number of oocytes responding", "setting": "[3]; pCMV-KEα3, 12.5 ng RNA injected", "value": "0 of 8"}
    ]}
  ]
}
